# Source: PubChem BioAssay AID1347075 (National Center for Advancing Translational Sciences (NCATS), 2019)
# Where “and” joins values, the source holds several entries; their conditions need not be identical. Equal values may be shown once. Hit rate of the full screen: of about 400,000 compounds, about 5,500 (1.4%) were called active. Inconclusive means that the source gave no clear call. Such entries were picked first, then a sample of the others. The call rests on the fitted dose curve; in most records, active means well fitted cell-killing curve with a large enough effect; inconclusive means small, poorly fitted or top-dose-only effect, or effect the other way; inactive means flat fitted curve, though single readings scatter. A potency beside an inconclusive call is a rough fit, not a confirmed value.
# Assay: qHTS assay for MDR1-selective chemotherapeutics: Primary screen using the parental adenocarcinoma cell KB-3-1; further: nearly all actives have a fitted effect of over 60% in size
# Conditions: KB-3-1 viability, CellTiter-Glo ATP luminescence, 72 h; activity change, negative = cytotoxic: at 46.1 µM (top of the series)
# Summary of the method: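 Parental KB-3-1 adenocarcinoma cells in phenol-red-free DMEM with 10% FBS were pin-treated with compounds at several concentrations, incubated 72 h at 37 °C, and viability read by CellTiter-Glo luminescence; concentration-effect curves were fitted after normalization.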
# On the % scale 0 is the no-effect control and ±100 the full control effect; potency means the concentration at half of the fitted maximal effect.
Compound,Potency,"activity change, negative = cytotoxic"
COc1ccc(-n2nnnc2-c2ccccc2)cc1,active: 6.51 µM,
COc1ccc(C(=O)COC(=O)CNC(=O)c2ccc(OC)cc2)cc1,,inactive: 12.5%
Brc1cccc(OCCOCCn2ccnc2)c1,,inconclusive: -9.15%
CCn1c(-c2ccc(C)cc2)nn(CC(=O)NCCc2ccccc2)c1=S,"inconclusive: 25.9 µM [cytotoxic, single point]",
CCC(C)C(=O)Nc1cc(C(=O)OC)cc(C(=O)OC)c1 (centres undefined),,inactive: 4.35%
COC(=O)c1cccc(N/C=C(\[N+](=O)[O-])S(=O)(=O)c2ccccc2)c1,,inconclusive: 10%
CCNc1ccc(Br)cc(C(=O)/C=C/c2ccccc2Cl)c1=O,"inconclusive: 29.1 µM [cytotoxic, single point]",
Cc1ccc(NC(=O)CO/N=C(\N)c2nonc2N)cc1,"inconclusive: 18.4 µM [cytotoxic, partial curve, poor fit]",
O=C(CC1SC(=O)N(Cc2ccccc2Cl)C1=O)Nc1nccs1 (centres undefined),,inactive: 12.3%
Cc1csc(NC(=O)c2sccc2C)n1,"inconclusive: 8.2 µM [cytotoxic, partial curve]",
COc1ccccc1N1CCN(C(=O)c2nc(SC)ncc2Cl)CC1,active: 4.11 µM,
COc1cc(C(=O)NC2CCCc3ccccc32)ccc1OCC(=O)Nc1ccc(F)cc1 (centres undefined),,inconclusive: 43%
COc1ccc(-c2cc3onc(-c4c(Cl)cccc4Cl)c3c(=O)n2C)cc1,"inconclusive: 29.1 µM [cytotoxic, single point]",
NC1=C(Br)C(=O)c2ncccc2C1=O,active: 2.59 µM,
O=C1CN(C(=O)COC(=O)CNC(=O)c2ccccc2)c2ccccc2N1,,inactive: -4.89%
CCN(c1ccccc1)S(=O)(=O)c1ccc(OC)c(NC(=O)CNCC(C)O)c1 (centres undefined),"inconclusive: 23.1 µM [cytotoxic, single point]",
CN(C)c1ccc(C(=O)c2ccc(N(C)C)c3ccccc23)cc1,active: 0.092 µM,
CCOc1ccc(-c2nnc(NC(=O)CCCOc3cccc(C)c3)o2)cc1,"inconclusive: 14.6 µM [cytotoxic, single point]",
CCCCc1ccc(NC(=S)Nc2ccc(Nc3ccc(OC)cc3)cc2)cc1,"inconclusive: 29.1 µM [cytotoxic, single point]",
CCNC(=O)CSc1nc2ccccc2c(=O)n1OC,"inconclusive: 29.1 µM [rising, single point]",
N#C/C(=C/c1ccc(-c2ccc(S(N)(=O)=O)cc2)o1)c1nc2ccccc2s1,,inactive: 0%
CCc1ccc(NC(=O)c2sc3nc(C)c(Cl)c(C)c3c2NC(=O)c2ccccc2OC)cc1,"inconclusive: 20.6 µM [cytotoxic, single point]",
COC(=O)[C@]12CCCCC=C1N(Cc1cccc3ccccc13)C(=O)[C@H](CC(=O)NCc1ccc(OC)c(OC)c1)C2,active: 5.8 µM,

Compound,Potency,"activity change, negative = cytotoxic"
CCN(CC)C1Oc2cc3c(cc2C(c2cc(OC)c(O)c(OC)c2)C1C)OCO3 (centres undefined),"inconclusive: 29.1 µM [cytotoxic, single point]",
O=[N+]([O-])c1ccc2[nH]c(=S)[nH]c2c1,,inactive: 2.37%
Cc1[nH]nc(C(F)(F)F)c1N=NN1CCOCC1,"inconclusive: 20.6 µM [cytotoxic, single point]",
COc1ccc(N(CC(=O)Nc2cccc([N+](=O)[O-])c2C)S(C)(=O)=O)cc1OC,"inconclusive: 29.1 µM [rising, single point]",
N#Cc1ccc(-c2ccc(OCC(=O)NCC(=O)Nc3ccc(F)c(F)c3F)cc2)cc1,,inactive: 12.8%
C=CCN1C(=O)S/C(=C/c2ccc(Sc3nc4ccccc4[nH]3)o2)C1=O,"inconclusive: 29.1 µM [cytotoxic, single point]",
COc1cccc(-c2ncnn2-c2sc3c(c2C#N)CCCCC3)c1OC,,inactive: 4.65%
Cc1nnsc1C(=O)NC1CCCc2c1cnn2-c1ccccc1F (centres undefined),"inconclusive: 23.1 µM [cytotoxic, single point]",
O=C(c1ccccc1)c1ncc(C(F)(F)F)cc1Cl,"inconclusive: 0.517 µM [rising, full curve]",
Cc1ccc2c(=O)cc(C(=O)Nc3nc4ccc(Cl)cc4s3)oc2c1C,"inconclusive: 0.082 µM [cytotoxic, full curve, poor fit]",
Nc1nc(COC(=O)CCC(=O)c2ccccc2)nc(Nc2ccccc2)n1,,inactive: 1.08%
COc1ccc(-c2csc(N3CCN(S(=O)(=O)c4ccc5c(c4)NC(=O)CO5)CC3)n2)cc1,"inconclusive: 18.4 µM [cytotoxic, single point]",
CCOC(=O)c1cc2c(ccn2-c2ccc(F)cc2)n1CC(=O)N1CCN(C(=O)c2ccco2)CC1,,inactive: 11.7%
CCOc1ccc(CCN2C(=S)N([C@@H](Cc3ccc(O)cc3)CN3CCC[C@@H]3CN3C(=S)NC[C@@H]3Cc3ccccc3)C[C@@H]2Cc2ccc(O)cc2)cc1,"inconclusive: 29.1 µM [cytotoxic, single point]",
COc1ccccc1NC(=O)Cn1c(=O)oc2cc(S(=O)(=O)N3CCCC3)ccc21,,inactive: 4.66%
Oc1ccccc1/C=N/Nc1ccnc(SCc2ccccc2)n1,,inactive: 2.24%
Cc1cc(NC(=O)CCC(=O)N(CCC(C)C)C(C(=O)NCC2CCCO2)c2ccccc2C)no1 (centres undefined),,inactive: 1.7%
C=CCn1c(SCC(=O)N2CC(=O)Nc3ccccc32)nc2scc(-c3ccccc3)c2c1=O,"inconclusive: 23.1 µM [cytotoxic, single point]",
Cc1cccc(NC(=O)c2ccc3snnc3c2)c1,,inactive: -4.19%
COC(=O)c1cn(CCOc2ccccc2OC)c2ccccc12,"inconclusive: 20.6 µM [cytotoxic, single point]",
CCSc1nc2ccccc2n1C(=O)/C=C/c1ccc(OC)c(OC)c1,"inconclusive: 29.1 µM [cytotoxic, single point]",
CCc1nc2c(OCc3ccc(Cl)cc3)cccn2c1N(C=O)Cc1ccccc1,,inconclusive: 0%
CC(C)(C)OC(=O)N(Cc1ccccc1)Cc1ccc(OCc2cccc(NC(=O)C3CC3)c2)cc1,"inconclusive: 18.4 µM [cytotoxic, partial curve]",

# Record cards (already shown).
# `Cc1[nH]nc(C(F)(F)F)c1N=NN1CCOCC1` is listed with Potency: inconclusive: 20.6 µM [cytotoxic, single point]
# `CCc1nc2c(OCc3ccc(Cl)cc3)cccn2c1N(C=O)Cc1ccccc1` is listed with activity change, negative = cytotoxic: inconclusive: 0%

# Next entries follow.

Compound,Potency,"activity change, negative = cytotoxic"
Cc1cccc(-c2nc(NCCCN3CCOCC3)c3ccccc3n2)c1,"inconclusive: 25.9 µM [cytotoxic, partial curve, poor fit]",
COc1ccc(OC)c(C2Nc3nc4ccccc4n3C(C)=C2C(=O)Nc2ccc(C)cc2C)c1 (centres undefined),"inconclusive: 35.5 µM [cytotoxic, single point]",
O=C(CSc1nc2ccccc2o1)Nc1cc(C(F)(F)F)ccc1N1CCOCC1,"inconclusive: 29.1 µM [cytotoxic, single point]",
CN(CC(=O)Nc1cccc(S(=O)(=O)N2CCOCC2)c1)CC(=O)Nc1ccc(Cl)c(C(F)(F)F)c1,"inconclusive: 29.1 µM [cytotoxic, single point]",
Cc1cccc(CNC(=O)c2sc(=O)n(Cc3ccc(S(C)(=O)=O)cc3)c2C)c1,"inconclusive: 23.1 µM [cytotoxic, single point]",
O=C(CN1C(=O)S/C(=C\c2cccc(Cl)c2)C1=O)NC1C=CS(=O)(=O)C1 (centres undefined),"inconclusive: 0.92 µM [cytotoxic, full curve, poor fit]",
O=C(c1cc(-c2ccccc2)nn1-c1ccccc1)N1CCN(S(=O)(=O)c2ccc(F)cc2)CC1,,inactive: -9.85%
O=C(Cn1cc(COc2ccccc2[N+](=O)[O-])nn1)c1ccc(O)cc1,"inconclusive: 0.184 µM [rising, full curve]",
CNC(=O)c1c(O)c2cccc3c2n(c1=O)CC3,"inconclusive: 29.1 µM [cytotoxic, single point]",
COc1ccc(/C=C/c2ccc3cccc(O)c3n2)cc1Br,"inconclusive: 13 µM [cytotoxic, partial curve]",
Cc1ccc(-c2nc(CSc3nc4ccccc4c(=O)n3C)cs2)cc1,"inconclusive: 18.4 µM [cytotoxic, single point]",
COC(=O)c1ccc(NC(=O)c2cc3c(CO)cnc(C)c3oc2=Nc2cccc(C(N)=O)c2)cc1,"inconclusive: 0.92 µM [rising, full curve]",
Nc1cc2nc3ccccc3oc-2cc1=O,"inconclusive: 18.4 µM [cytotoxic, single point]",
COc1ccc(OC)c(/C=C/c2ccnc3ccccc23)c1,"inconclusive: 23.1 µM [cytotoxic, single point] and inconclusive: 2.91 µM [cytotoxic, partial curve, poor fit]",
Cc1ccc(C)c(NC(=O)CC2NCCNC2=O)c1 (centres undefined),"inconclusive: 29.1 µM [cytotoxic, single point]",
CC(=O)Nc1c([N+](=O)[O-])cc(C)c(Cl)c1[N+](=O)[O-],"inconclusive: 29.1 µM [cytotoxic, single point]",
C1=C(c2ccc(-c3ccccc3)cc2)Nc2ncnn2C1c1ccco1 (centres undefined),"inconclusive: 20.6 µM [cytotoxic, single point]",
O=C(NC12CC3CC(CC(C3)C1)C2)c1ccc(N2CCNCC2)c([N+](=O)[O-])c1,active: 18.4 µM,
CC1CN(c2ncc(/C=N/NC(=O)c3ccccc3O)s2)CC(C)O1 (centres undefined),"inconclusive: 25.9 µM [rising, single point]",
Cc1cccc(C(=O)OCC(=O)N(C)C(c2ccccc2)c2ccccc2)c1[N+](=O)[O-],,inactive: 24.8%
c1ccc(Cn2nnc3c(N4CCCCCC4)ncnc32)cc1,"inconclusive: 23.1 µM [cytotoxic, single point]",
Cc1cc(C)c(C)c(S(=O)(=O)Nc2ccc3cn[nH]c3c2)c1C,,inactive: -19.4%
CCN(CC)S(=O)(=O)c1ccc(NC(=O)COC(=O)c2ccc(Br)o2)cc1,,inactive: -13.3%

# Molecules from the list above containing bromine:
Compound,Potency,"activity change, negative = cytotoxic"
Brc1cccc(OCCOCCn2ccnc2)c1,,inconclusive: -9.15%
CCNc1ccc(Br)cc(C(=O)/C=C/c2ccccc2Cl)c1=O,"inconclusive: 29.1 µM [cytotoxic, single point]",
NC1=C(Br)C(=O)c2ncccc2C1=O,active: 2.59 µM,
COc1ccc(/C=C/c2ccc3cccc(O)c3n2)cc1Br,"inconclusive: 13 µM [cytotoxic, partial curve]",
CCN(CC)S(=O)(=O)c1ccc(NC(=O)COC(=O)c2ccc(Br)o2)cc1,,inactive: -13.3%
